PubChem BioAssay AID1259308, NCATS | 2017

Test: 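Genes whose loss raises luciferase production in HEK293 cells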 (primary screen)
Cell system: human HEK293 embryonic kidney cells stably expressing firefly luciferase (HEK-CMV-Luc2-Hygro)
Knock-down reagent: single siRNA against human genes, 0.8 pmol siRNA per well
Time to read-out: 72 h
Measurement: 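Luciferase light (ONE-Glo) measured on one replicate plate set and viability (CellTiter-Glo) on the other, scaled to a negative control siRNA, with robust z-scores and luciferase per cell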
Reading the numbers: total luciferase, z-score and total luciferase, % of control: higher = more reporter protein produced
Call rule: 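Active when the median/MAD z-score for overall luciferase is greater than 3; a gene was taken forward for validation with new siRNAs if at least two of its three siRNAs passed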
Calls: active = raised luciferase; inactive = no rise
In all, the deposit lists about 59,000 reagents; below is a part drawn at random. About 1,510 of them (2.6%) count as active. 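Calls use total luciferase alone and ignore viability, so some active siRNAs may act by altering cell number.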 A number with no mark means an inactive call. The numbers tell different reagents against one gene apart. Further read-outs or replicates are left out here.

ING5 #1 | total luciferase, z-score = -1.6; total luciferase, % of control = 50
ING5 #2 | total luciferase, z-score = -1.77; total luciferase, % of control = 46.7
ING5 #3 | total luciferase, z-score = 0.964; total luciferase, % of control = 101
KPNA6 #1 | total luciferase, z-score = -0.647; total luciferase, % of control = 69
KPNA6 #2 | total luciferase, z-score = 0.6; total luciferase, % of control = 93.8
KPNA6 #3 | total luciferase, z-score = -1.67; total luciferase, % of control = 48.7
SWT1 #1 | total luciferase, z-score = -1.34; total luciferase, % of control = 55.2
SWT1 #2 | total luciferase, z-score = -0.277; total luciferase, % of control = 76.4
SWT1 #3 | total luciferase, z-score = 0.0125; total luciferase, % of control = 82.1
BIRC7 #1 | total luciferase, z-score = -0.0121; total luciferase, % of control = 81.6
BIRC7 #2 | total luciferase, z-score = -1.14; total luciferase, % of control = 59.3
BIRC7 #3 | total luciferase, z-score = -2.38; total luciferase, % of control = 34.6

2 entries from above, limited to “total luciferase, % of control”:
BIRC7 #2 = 59.3
BIRC7 #3 = 34.6

More records:
CHRNB1 #1 | total luciferase, z-score = 3.46 (active); total luciferase, % of control = 151
CHRNB1 #2 | total luciferase, z-score = 0.0837; total luciferase, % of control = 83.6
CHRNB1 #3 | total luciferase, z-score = 1.71; total luciferase, % of control = 116
PRELID2 #1 | total luciferase, z-score = 1.97; total luciferase, % of control = 121
PRELID2 #2 | total luciferase, z-score = -0.243; total luciferase, % of control = 77.1
PRELID2 #3 | total luciferase, z-score = 0.913; total luciferase, % of control = 100
TBX3 #1 | total luciferase, z-score = 1.11; total luciferase, % of control = 104
TBX3 #2 | total luciferase, z-score = -1.18; total luciferase, % of control = 58.3
TBX3 #3 | total luciferase, z-score = -0.805; total luciferase, % of control = 65.9
